The list shows only some results of the screen, not a fair sample: it is rich in T/C values a quarter to a half above the control, in often repeated tests (any T/C) and in doses without a T/C. Other doses and runs of a compound stand elsewhere. T/C gives the treated animals as a percentage of the vehicle group. Some entries give survivors of the animals treated and no T/C: the source files T/C as zero there, which appears to mark a toxic dose or a test without result, not a measured value. Some survivor counts are full or nearly so, which does not show that the dose was tolerated: the source hardly ever lists a survival T/C far under the control, and the zero likely stands for such cases as well. Survivors were counted at the toxicity check, usually on the fifth day, unless a day is given; later deaths do not show. Schedule codes are those of the source, taken here to give the interval after Q, in days (D) or hours (H), and the number of doses after X. Where survival is the endpoint, this PubChem deposit counts one and a half times the control or more as active, and values a quarter to a half above the control carry no call in these data; other NCI protocols may use other cut-offs. Some T/C values carry the count of animals alive at the toxicity check (mostly the fifth day); where none is given, no animal had died by that day.
Tested on: CD2F1 mice, Lymphoma 8 ip, survival T/C
Experiment: NCI In Vivo Anticancer Drug Screen. Data for tumor model Lymphoma 8 (intraperitoneal) in CD2F1 (CDF1) mice
Settings: vehicle: saline, higher T/C = longer survival
Procedure: The antitumor activity of compounds was measured in mice bearing transplantable tumors. Survival or tumor size were measured and the results are expressed as the measurement made in the treated group (T) divided by the measurement made in the vehicle treated control group (C). The tumor model used in this assay is Lymphoma 8 (intraperitoneal) in CD2F1 (CDF1) mice

With `N=[N+]=CC(=O)CCC(NC(=O)C(CCC(=O)C=[N+]=N)NC(=O)CCC(N)C(=O)O)C(=O)O` (stereo not given) the T/C (T/C endpoint: median survival time, dose: 2.5 mg/kg/injection, schedule: Q04DX002 (ip), evaluated on day 60) was 130 % of control, the T/C (T/C endpoint: median survival time, dose: 2.5 mg/kg/injection, schedule: Q04DX002 (ip), run until all animals had died) was 138 % of control and the T/C (T/C endpoint: median survival time, dose: 5.0 mg/kg/injection, schedule: Q01DX006 (ip)) was 125 % of control. For the same molecule, the T/C (T/C endpoint: median survival time, dose: 5.0 mg/kg/injection, schedule: Q04DX002 (ip), evaluated on day 60) was 146 % of control, the T/C (T/C endpoint: median survival time, dose: 5.0 mg/kg/injection, schedule: Q04DX002 (ip), run until all animals had died) was 138 % of control and the T/C (T/C endpoint: median survival time, dose: 20.0 mg/kg/injection, schedule: Q01DX006 (ip)) was 135 % of control. For the same molecule, the T/C (T/C endpoint: median survival time, dose: 20.0 mg/kg/injection, schedule: Q04DX003 (ip)) was 146 % of control, the T/C (T/C endpoint: median survival time, dose: 27.0 mg/kg/injection, schedule: Q04DX002 (ip)) was 132 % of control and the T/C (T/C endpoint: median survival time, dose: 40.0 mg/kg/injection, schedule: Q01DX001 (ip)) was 146 % of control [4 of 6 alive]. For the same molecule, the T/C (T/C endpoint: median survival time, dose: 40.0 mg/kg/injection, schedule: Q01DX006 (ip)) was 142 % of control, the T/C (T/C endpoint: median survival time, dose: 40.0 mg/kg/injection, schedule: Q04DX002 (ip)) was 132 % of control and the survivor count (T/C endpoint: median survival time, dose: 60.0 mg/kg/injection, schedule: Q04DX002 (ip)) was 6 of 6. The survivor count (T/C endpoint: median survival time, dose: 80.0 mg/kg/injection, schedule: Q01DX001 (ip)) was 4 of 6.

With `NC(C(=O)O)C(F)(F)C(=O)O` (stereo not given) the survivor count (T/C endpoint: median survival time, dose: 50.0 mg/kg/injection, schedule: Q01DX009 (ip)) was 1 of 3, the survivor count (T/C endpoint: median survival time, dose: 100.0 mg/kg/injection, schedule: Q01DX009 (ip)) was 2 of 3 and the survivor count (T/C endpoint: median survival time, dose: 200.0 mg/kg/injection, schedule: Q01DX009 (ip)) was 0 of 3.

In the case of `CC(=O)Nc1c(Cl)cc2c(c1Cl)Cc1cc([N+](=O)[O-])ccc1-2`, the survivor count (T/C endpoint: survival time, mean or median, dose: 7.8 mg/kg/injection, schedule: Q01DX010 (ip)) is reported as 8 of 8, the survivor count (T/C endpoint: survival time, mean or median, dose: 15.6 mg/kg/injection, schedule: Q01DX010 (ip)) is reported as 8 of 8 and the survivor count (T/C endpoint: survival time, mean or median, dose: 31.3 mg/kg/injection, schedule: Q01DX010 (ip)) is reported as 8 of 8.

For `NC(CC(=O)CCl)C(=O)O` (stereo not given), the survivor count (T/C endpoint: median survival time, dose: 50.0 mg/kg/injection, schedule: Q01DX005 (ip)) was 1 of 6.

With `COc1cccc2c1C(=O)c1c(O)c3c(c(O)c1C2=O)C[C@@](O)(C(C)=O)C[C@@H]3OC1CC(N)C(O)C(C)O1` (stereo not given in full) the T/C (T/C endpoint: median survival time, dose: 5.0 mg/kg/injection, schedule: Q01DX005 (ip)) was 127 % of control and the survivor count (T/C endpoint: median survival time, dose: 10.0 mg/kg/injection, schedule: Q01DX005 (ip)) was 10 of 10.

`Nc1ncn(C2OC(CO)C(O)C2O)c(=O)n1` (stereo not given) was tested, and the T/C (T/C endpoint: median survival time, dose: 1.5 mg/kg/injection, schedule: Q01DX005 (ip)) was 133 % of control and the survivor count (T/C endpoint: median survival time, dose: 6.0 mg/kg/injection, schedule: Q01DX005 (ip)) was 10 of 10.

In the case of `CNC(=O)CC(N)C(=O)O` (stereo not given), the survivor count (T/C endpoint: median survival time, dose: 1200.0 mg/kg/injection, schedule: Q01DX005 (ip)) is reported as 6 of 6.

— PubChem BioAssay AID244 (DTP/NCI, 2004)
